Assay results from patent EP0406428B1 (ASAHI GLASS COMPANY LTD., priority 1988, dated 1995).

assay: general procedure: solution-phase peptide synthesis; WSC·HCl/HOBt; HOSu/WSC·HCl active ester for cyclisation in pyridine; settings: coupling step

Row | Substance | step yield [%]
1 | Boc Asp(OBzl)Ser(Bzl)Pro Ala OPac | 86.9
2 | Boc Gly Arg(Tos)Gly Asp(OBzl)Ser(Bzl)Pro Ala OPac | 50
3 | BocAsp(OcHex)AsnProAlaOBzl | 87
4 | BocGlyArg(Tos)GlyAsp(OcHex)AsnProAlaOBzl | 75
5 | BocValThr(Bzl)GlyArg(Tos)GlyAsp(OBzl)Ser(Bzl)ProAlaOPac | 94

same assay, conditions: late stage modification step

Row | Substance | step yield [%]
6 | Boc Gly Arg(Tos)Gly Asp(OBzl)Ser(Bzl)Pro Ala OH | 90
7 | BocAlaValThr(Bzl)GlyOH | 93
8 | BocValThr(Bzl)GlyArg(Tos)GlyAsp(OBzl)Ser(Bzl)ProAlaOH | 96
9 | PEPTIDE1{G.R.G.D.S.P.A}$PEPTIDE1,PEPTIDE1,1:R1-7:R2$$$V2.0 | 84

HELM strings list residues between dots; [ac] is acetyl, [am] amide, other brackets name non-standard units.
